Consider one substance from publication PMC11891122.

The chains behind the UniProt entries cited, without tags or fusion partners.
UniProt Q7XC27: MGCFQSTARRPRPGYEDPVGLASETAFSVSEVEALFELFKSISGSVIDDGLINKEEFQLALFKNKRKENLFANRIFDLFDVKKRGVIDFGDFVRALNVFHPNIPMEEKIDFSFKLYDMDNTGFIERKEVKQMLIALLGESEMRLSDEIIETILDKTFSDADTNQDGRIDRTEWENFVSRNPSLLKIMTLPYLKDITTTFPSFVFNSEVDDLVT

The target in the assay is T1, OsSPX4 (rice) (UniProt Q10B79).
T1 sequence: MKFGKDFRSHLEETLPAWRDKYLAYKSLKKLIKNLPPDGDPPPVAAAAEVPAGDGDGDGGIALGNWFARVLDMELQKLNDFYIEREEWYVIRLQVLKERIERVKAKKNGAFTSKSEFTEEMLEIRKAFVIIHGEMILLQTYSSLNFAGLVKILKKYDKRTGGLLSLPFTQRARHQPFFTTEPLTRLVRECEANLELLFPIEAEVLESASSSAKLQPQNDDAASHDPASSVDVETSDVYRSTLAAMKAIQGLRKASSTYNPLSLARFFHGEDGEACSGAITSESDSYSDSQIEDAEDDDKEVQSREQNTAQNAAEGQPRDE
The assay can be described thus: two-hybrid; yeast two-hybrid (Y2H); no conditions, vectors or orientation told in the text shown.

These are yes or no findings as the source states them, for the method shown.

For the substance “Calcineurin B-like protein-1 (OsCBL1) (from UniProt Q7XC27 1-213)”, the binding entry is listed as “no binding”.
